The other results are listed elsewhere or left out. The main result of the screen is listed elsewhere. These columns were measured beside it and carry no call. Most of these compounds were active or inconclusive in the main read-out, so they are no random draw. Words in brackets tell the shape of the fitted curve; partial curves, single points and poor fits give uncertain potencies.

The assay is described as follows: qHTS Assay to Find Inhibitors of Chronic Active B-Cell Receptor Signaling. Particulars: ABC-DLBCL IkBa-CBG/CBR reporter, luminescence ratio (green luciferase fused to IkBa over red control in TMD8 lymphoma cells), 4 h. In short, it runs like this: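 Cell line TMD8 (human ABC DLBCL), stably expressing tet-inducible CBG68-IkBa fusion and CBR; IMDM/0.5% FBS; cpd up to 46 uM; dox induction, 4 h, 37C/5% CO2; dual luminescence; green/red ratio; MG132 control.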
(Quantitative high-throughput screening tests each substance at several concentrations.)

Setting [1] is: measured here: CBR red luminescence, cell number.
Setting [2] is: measured here: IkBa-CBG green luminescence.

By AC50 is commonly meant the midpoint of the concentration-response curve, whichever way the signal moves. Regarding `COc1ccc(CCNC(=O)c2ccc3c(c2)N(Cc2ccc(F)cc2)C(=O)CS3)cc1OC`, the AC50 under setting [1] was 12.6 µM [falling, single point] and the AC50 under setting [2] is 22.4 µM [rising, partial curve, poor fit].

For the molecule `O=c1[nH]c2cc3c(cc2cc1CN(Cc1cccnc1)C(=S)NCc1ccco1)OCO3`, the AC50 under setting [1] was 10 µM [falling, partial curve, poor fit].

For `C=CCN(CC=C)C(=O)CN1C(=O)NC(Cc2c[nH]c3ccccc23)C1=O` (stereo not drawn), under setting [1], the AC50 is 15.8 µM [rising, single point].

In the case of `CC(O)c1nc2ccccc2n1CCCCOc1ccccc1` (stereo not drawn), under setting [1], the AC50 was 22.4 µM [rising, partial curve, poor fit].

For `Cc1ccc(C(=O)Nc2ccc3c(c2)OCCO3)cc1`, the AC50 under setting [1] is 11.2 µM [falling, partial curve].

On to `Cc1sc2ncnc(Nc3ccc(N4CCOCC4)cc3)c2c1-c1ccccc1`, for which the AC50 under setting [1] was 14.6 µM [rising, partial curve, poor fit].

As to `COc1ccccc1CC(=O)NNC(=O)c1cccs1`, the AC50 under setting [1] is 10 µM [falling, partial curve, poor fit].

For the molecule `COc1cc2c(cc1NC(=O)c1cccc(Br)c1)CCCC2`, the AC50 under setting [1] was 0.447 µM [rising, full curve, poor fit].

Consider `S=c1[nH]nc(-c2ccccc2)n1/N=C/c1cccc(Br)c1`, for which the AC50 under setting [1] is 12.6 µM [rising, single point].

Take `COc1cccc2cc(-c3ccnc(N)n3)oc12`: the AC50 under setting [1] was 1.12 µM [falling, full curve, poor fit].

As for `CC(C)(C)C(=O)Nc1nc2cc3c(cc2s1)OCO3`, the AC50 under setting [1] was 12.6 µM [falling, partial curve].

As for `COc1cccc(CSc2nc3ccccc3cc2C=O)c1`, the AC50 under setting [1] is 2.82 µM [rising, partial curve] and the AC50 under setting [2] was 3.55 µM [falling, partial curve].

For the molecule `CCOCCCNCc1ccc(OC)cc1`, under setting [1], the AC50 is 29.1 µM [falling, single point].

As for `CCCn1c(=O)c2c(nc3n2CCN3Cc2ccco2)n(C)c1=O`, the AC50 under setting [1] was 0.355 µM [falling, full curve, poor fit].

For `CCN(CC)C(=O)CC(c1ccc2c(c1)OCO2)c1c(OC)cc(OC)c2ccc(=O)oc12` (stereo not drawn), the AC50 under setting [1] is 7.08 µM [rising, full curve, poor fit].

Consider `Cc1ccc(NC(=O)c2ccccc2)s1`, for which the AC50 under setting [1] was 16.4 µM [falling, single point].

As for `CCOC(=O)c1ccc(NC(=S)NC2CCCC2)cc1`, under setting [1], the AC50 is 0.58 µM [rising, full curve, poor fit].

`CC1(C)CC(=O)C=C(NCCc2ccccc2)C1`: the AC50 under setting [1] was 35.5 µM [falling, single point].

For the molecule `COc1cc(OC)cc(C(=O)Nc2ccc([N+](=O)[O-])cn2)c1`, the half-maximal activity concentration (AC50) under setting [1] is 1.64 µM [falling, full curve, poor fit].

For `O=C(Nc1cccc(C(=O)N2CCN(c3cccc(Cl)c3)CC2)c1)c1ccccc1`, the AC50 under setting [1] was 0.112 µM [falling, full curve, poor fit].

As to `Cc1nonc1OCCNCc1c(C(=O)N(C)C)nc2ccc(Cl)cn12`, the AC50 under setting [1] is 2 µM [falling, full curve, poor fit].

As to `O=C(O)Cn1c(=O)c2cccn2c2ccccc21`, the AC50 under setting [1] is 12.6 µM [rising, partial curve, poor fit].

As for `COc1cc(C2c3sc(=O)[nH]c3SC3C(=O)N(c4ccc(Br)cc4)C(=O)C32)ccc1O` (stereo not drawn), the AC50 under setting [1] was 25.1 µM [falling, single point].

Consider `Cc1nc(=O)c(-c2ccccc2)c(C)n1CCCCCC(=O)O`, for which, under setting [1], the AC50 is 29.1 µM [rising, single point].

With `CCCc1[nH]n(-c2nc3ccccc3s2)c(=O)c1C=NCCCN(CC)CC`, under setting [1], the AC50 was 22.4 µM [falling, partial curve, poor fit].

In the case of `COc1ccc(/C=N\NC(=O)c2cc(O)c(O)c(O)c2)cc1COc1ccc(C(=O)OCC(C)C)cc1`, the AC50 under setting [1] was 35.5 µM [falling, single point].

`Nc1nc(SCC(=O)Nc2ccc(Cl)cc2)[nH]c(=O)c1-c1ccccc1`: the AC50 under setting [1] is 0.501 µM [rising, full curve, poor fit].

As for `CN(C)c1ccc(/C=N/N2CCN(c3ccccn3)CC2)cc1`, under setting [1], the AC50 was 3.98 µM [rising, single point].

With `CCOC(=O)c1sc(NC(=O)CN2C(=O)NC3(CC(C)CC(C)(C)C3)C2=O)c(C(=O)OCC)c1C` (stereo not drawn), the AC50 under setting [1] was 18.4 µM [rising, partial curve, poor fit].

On to `O=C(O)c1ccc(NC2=C(n3nnc4ccccc43)C(=O)c3ccccc3C2=O)cc1`, for which the AC50 under setting [1] was 2.24 µM [rising, single point].

With `Oc1ccc(Cl)cc1CNCC1CCCO1` (stereo not drawn), the AC50 under setting [1] was 29.1 µM [rising, single point].

For the molecule `Cc1cccc(-c2nsc(SCC(=O)Nc3cc(C)on3)n2)c1`, the AC50 under setting [1] is 6.31 µM [rising, single point].

For `CC(=O)Nc1ccc(S(=O)(=O)N2CCC(NC(=O)C(Cc3cccc(F)c3)NC(C)=O)CC2)cc1` (stereo not drawn), the AC50 under setting [1] was 2.82 µM [rising, partial curve, poor fit].

With `O=C(COC(=O)Cc1ccc(-c2ccccc2)cc1)NCc1ccccc1`, the AC50 reads like this: under setting [1], 6.51 µM [rising, partial curve]; under setting [2], 23.1 µM [falling, partial curve, poor fit].

Take `Cc1cc(C)n(CCCNC(=O)C(C)(C)Oc2ccc(Cl)cc2)n1`: the AC50 under setting [1] was 18.4 µM [falling, single point].

In the case of `C=CCC1S/C(=N/N=C/c2cccs2)NC1=O` (stereo not drawn), under setting [1], the AC50 is 25.1 µM [falling, single point].

`COc1ccc(CC(=O)OCC(=O)Nc2ccc(C(=O)Nc3ccc(OC)cc3)cc2)cc1`: under setting [1], the AC50 was 1.12 µM [falling, partial curve, poor fit].

Take `O=C(NC1CCCCCC1)c1cc2c(=O)n3ccccc3nc2s1`: the AC50 under setting [1] is 3.98 µM [falling, full curve, poor fit].

Take `CC(=O)c1cccc(N(C(=O)c2ccco2)C(C(=O)NC2CCCC2)c2ccc(N3CCOCC3)cc2)c1` (stereo not drawn): the AC50 under setting [1] is 0.562 µM [rising, full curve, poor fit].

Turning to `O=C(c1ccc(F)cc1)C(CCCCCC(CN1CCOCC1)C(=O)c1ccc(F)cc1)CN1CCOCC1` (stereo not drawn), the AC50 under setting [1] was 35.5 µM [falling, single point].
